{
  "source": "paper PMC7819943",
  "about": "“Rice protein-binding microarrays: a tool to detect cis-acting elements near promoter regions in rice”",
  "note": "This is one part of the list.",
  "data": [
    {"target": "T1, OsSMF1 (Oryza sativa, UniProt Q6ZLB0 1-436)", "T1 sequence": "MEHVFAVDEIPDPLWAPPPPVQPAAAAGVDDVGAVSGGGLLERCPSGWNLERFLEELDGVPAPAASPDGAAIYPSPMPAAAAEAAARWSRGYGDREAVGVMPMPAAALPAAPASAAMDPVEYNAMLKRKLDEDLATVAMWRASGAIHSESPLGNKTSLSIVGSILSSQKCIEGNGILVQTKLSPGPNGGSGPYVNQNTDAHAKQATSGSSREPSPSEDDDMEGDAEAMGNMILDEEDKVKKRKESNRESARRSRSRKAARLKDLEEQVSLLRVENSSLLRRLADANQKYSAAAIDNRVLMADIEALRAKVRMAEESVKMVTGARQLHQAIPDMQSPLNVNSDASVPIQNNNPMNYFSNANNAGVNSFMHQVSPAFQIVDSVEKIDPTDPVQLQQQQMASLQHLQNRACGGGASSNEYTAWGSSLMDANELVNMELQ", "experiment": "protein-binding microarray (RPBM); PBS, 2% BSA, 51.3 ng/ul salmon testes DNA, 50 uM zinc acetate, 200 nM TF, 25 C, 1 h; high values mean tight binding", "conditions": "protein: recombinant; tags: N-terminal polyhistidine and DsRed monomer fusion (pET32a); chain copies: 2; label: CyDye5-dUTP incorporated in the synthesized complementary strand; 3' TTTTT single-stranded linker to array surface; dsDNA, one strand shown", "in_short": "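Binding signal is reported as fluorescence intensity per feature (arbitrary units) from an Axon 4000B scanner. Incubation used 200 nM of each Ni–NTA-purified, N-terminally polyhistidine- and DsRed-fused transcription factor from E. coli BL21-CodonPlus on a double-stranded custom Agilent array for 1 h at 25 °C, with 50 µM zinc acetate in the buffer, followed by washing.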", "values": [
      {"sequence": "CATCTCCCTCAACGTCATCGCCATCGGCCTCTCCGCCCTCCGGAGTCACCTAGTGCAG", "binding signal": "6370 fluorescence intensity (a.u.)"},
      {"sequence": "TCCCTGACTCCGCGACTGCTCCTCCTTCCTCCTCTCTCCTCGGAGTCACCTAGTGCAG", "binding signal": "3270 fluorescence intensity (a.u.)"},
      {"sequence": "TGGGTCCCTCCATGCTGAGTCAGCTTGTCAATCGGGTCAACGGAGTCACCTAGTGCAG", "binding signal": "21900 fluorescence intensity (a.u.)"},
      {"sequence": "GGAATCCAGAATGAGTTTGGAGGGAGGCTCGTCTTTACGACGGAGTCACCTAGTGCAG", "binding signal": "23700 fluorescence intensity (a.u.)"},
      {"sequence": "TCTGCAATCGCCTCATTTGTTGCCTAGCTAATTCGCGTCACGGAGTCACCTAGTGCAG", "binding signal": "4140 fluorescence intensity (a.u.)"},
      {"sequence": "CGAGGCCACGCGCAGCCCCTCGCCTCGCCACGACACGGATCGGAGTCACCTAGTGCAG", "binding signal": "5180 fluorescence intensity (a.u.)"},
      {"sequence": "ATTACATACTGGATGTGGATGATTTGCTTCATTAGAAATACGGAGTCACCTAGTGCAG", "binding signal": "3700 fluorescence intensity (a.u.)"},
      {"sequence": "GATTAGTGTGGTGGCATTCTTTTCTTCCATGATGCTACAGCGGAGTCACCTAGTGCAG", "binding signal": "3410 fluorescence intensity (a.u.)"},
      {"sequence": "ACTAAATTGACTTATTAGGTGTTGTCACAGTTTACTTGACCGGAGTCACCTAGTGCAG", "binding signal": "4870 fluorescence intensity (a.u.)"},
      {"sequence": "ATACACTCATTACGTTTGCTGTTGACAGGCTATCAAGATGCGGAGTCACCTAGTGCAG", "binding signal": "5100 fluorescence intensity (a.u.)"},
      {"sequence": "CTCGACATTGCTGGCAATGCCTGGGAGATTGCTTGCCATGCGGAGTCACCTAGTGCAG", "binding signal": "3180 fluorescence intensity (a.u.)"},
      {"sequence": "AGTCAAGTGAATTGCTTACATGGCATGATTAACAATTGACCGGAGTCACCTAGTGCAG", "binding signal": "3600 fluorescence intensity (a.u.)"},
      {"sequence": "TTCCTTCGCTGTGACGTCGTTCGTTCTGGATTGGTTACACCGGAGTCACCTAGTGCAG", "binding signal": "5870 fluorescence intensity (a.u.)"},
      {"sequence": "AAGTGCAGACACGACACAGCGTGACGCCGCGGGACGTCTCCGGAGTCACCTAGTGCAG", "binding signal": "3680 fluorescence intensity (a.u.)"},
      {"sequence": "CAGGCCACACACGTCGATGACTCCACCAGCCGTTATTCTTCGGAGTCACCTAGTGCAG", "binding signal": "6270 fluorescence intensity (a.u.)"},
      {"sequence": "GGCGCTCCATCACCACTTGGGCAAACGAAAACGGTGGTCGCGGAGTCACCTAGTGCAG", "binding signal": "3880 fluorescence intensity (a.u.)"},
      {"sequence": "CCTCATTTTGCTACAAGTGTGTCATGCCATACAAAGTAAGCGGAGTCACCTAGTGCAG", "binding signal": "5750 fluorescence intensity (a.u.)"},
      {"sequence": "GTGCAAGCACGTGTGACAACAAACACATCCATGGCGATATCGGAGTCACCTAGTGCAG", "binding signal": "3170 fluorescence intensity (a.u.)"},
      {"sequence": "GCATATTGACAAGGAGGAGGAAAAGAAAAGAGATAGAGAGCGGAGTCACCTAGTGCAG", "binding signal": "7890 fluorescence intensity (a.u.)"},
      {"sequence": "ACTCGCGCACTCGCGCTCGCTCGCACGAACGCACGCACGCCGGAGTCACCTAGTGCAG", "binding signal": "3670 fluorescence intensity (a.u.)"},
      {"sequence": "GTTGGAGGACGATTTTGTAACTCGATGACTAGTTGAGGGACGGAGTCACCTAGTGCAG", "binding signal": "3460 fluorescence intensity (a.u.)"},
      {"sequence": "GTACACCGGACGGAAGATGAGTCAGCCATTCTATTATCAGCGGAGTCACCTAGTGCAG", "binding signal": "5860 fluorescence intensity (a.u.)"},
      {"sequence": "GTGTTGGCCCGATTGAGATGTGTCATCCGTGATGGCCGGACGGAGTCACCTAGTGCAG", "binding signal": "3400 fluorescence intensity (a.u.)"},
      {"sequence": "CGCTTGTACTGATTTGGTTTTGGTTGCTGGGTTGGATGGTCGGAGTCACCTAGTGCAG", "binding signal": "3440 fluorescence intensity (a.u.)"},
      {"sequence": "TCTCGATCTCCCCGCCTATTTATGCTCGTCTCGTCACCCGCGGAGTCACCTAGTGCAG", "binding signal": "3600 fluorescence intensity (a.u.)"},
      {"sequence": "CCATGCCATGTATAGCCGCGCTGCTGATGCGGCCCTCCAGCGGAGTCACCTAGTGCAG", "binding signal": "4440 fluorescence intensity (a.u.)"},
      {"sequence": "AAACGGATAAGTTAGTAAGTAATTTCTTCCCTCCTAATTTCGGAGTCACCTAGTGCAG", "binding signal": "45900 fluorescence intensity (a.u.)"},
      {"sequence": "GGTATAAAAGATCCAGGAGAAGCATGCAACCCAGCAAGCCCGGAGTCACCTAGTGCAG", "binding signal": "21300 fluorescence intensity (a.u.)"},
      {"sequence": "AATTGGGATCAAAGCCTTCATGTTCATAGCAAATCAAGAGCGGAGTCACCTAGTGCAG", "binding signal": "45900 fluorescence intensity (a.u.)"},
      {"sequence": "ATTCGGGAATTTCTGGGCGTGACACGTTGCCACTAATCCGCGGAGTCACCTAGTGCAG", "binding signal": "6890 fluorescence intensity (a.u.)"},
      {"sequence": "AGACATATCCTTATTGTTTCAAATTTCAAACTGTATTATGCGGAGTCACCTAGTGCAG", "binding signal": "3570 fluorescence intensity (a.u.)"},
      {"sequence": "TCCGCCGTTGACGACCACTCCCACGTGCCCTCCACTACACCGGAGTCACCTAGTGCAG", "binding signal": "3600 fluorescence intensity (a.u.)"},
      {"sequence": "TAATTCATCTCTACACACCCACGTGGATGGATATACTCGCCGGAGTCACCTAGTGCAG", "binding signal": "12300 fluorescence intensity (a.u.)"},
      {"sequence": "TTCGGGCATACGCCACCCCGCCTTGTCATCCACCGCGCCCCGGAGTCACCTAGTGCAG", "binding signal": "7810 fluorescence intensity (a.u.)"},
      {"sequence": "GTCCGCTGGAGAGGCATCGACCACGTCATTTGACTGGTCGCGGAGTCACCTAGTGCAG", "binding signal": "10600 fluorescence intensity (a.u.)"},
      {"sequence": "AGAATGATGAACTAACTGTCCTCAAATAATCATGTCAGCTCGGAGTCACCTAGTGCAG", "binding signal": "3590 fluorescence intensity (a.u.)"},
      {"sequence": "AAGTTTAACATTAAAACTTAGTTGTGGTTGATAAACATGGCGGAGTCACCTAGTGCAG", "binding signal": "28200 fluorescence intensity (a.u.)"},
      {"sequence": "GGTATTGTGTGTGTAGTGATGTGCATGTGTGTGTTGATTTCGGAGTCACCTAGTGCAG", "binding signal": "3610 fluorescence intensity (a.u.)"},
      {"sequence": "ACACTGCCGCAGCCATTAAAGCCAACAAAAGATGACCTTGCGGAGTCACCTAGTGCAG", "binding signal": "3990 fluorescence intensity (a.u.)"},
      {"sequence": "CCGACCCTGCGTCACGGGCCCACATTGTCATACACGCCACCGGAGTCACCTAGTGCAG", "binding signal": "4000 fluorescence intensity (a.u.)"},
      {"sequence": "ACAGTAGTAGTTGAGGGATGTCAGATGAACTTATTCCGTGCGGAGTCACCTAGTGCAG", "binding signal": "3440 fluorescence intensity (a.u.)"},
      {"sequence": "GGTCCTGTGTAATTTTCTTCCGCGATGGCCACACGTGACGCGGAGTCACCTAGTGCAG", "binding signal": "4310 fluorescence intensity (a.u.)"}
    ]}
  ]
}
